This is one part of the list. Shown are side measurements of this screen, not its main read-out; they come without a call. Most of these compounds were active or inconclusive in the main read-out, so they are no random draw. Words in brackets tell the shape of the fitted curve; partial curves, single points and poor fits give uncertain potencies.
Assay: IkB Signaling
Details: ABC-DLBCL IkBa-CBG/CBR dual luciferase ratio (green luciferase fused to IkBa over red control in OCI-Ly3 lymphoma cells), 4 h
In short: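 In this assay, an IκBα–CBG68 fusion accumulates when IKK-driven degradation is blocked; native CBR normalizes for cell number. OCI-Ly3 cells were treated 4 h with compound and doxycycline, then green and red light read after Chroma-Glo addition.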

[1] = measured here: control luc red channel unless noted

O=S(=O)(CCN(CCS(=O)(=O)C(F)(F)F)CC1CCCO1)C(F)(F)F (stereo not drawn)
AC50 [1]: 39.8 µM [falling, single point]

Cc1cccc(NC(=O)CSc2nc3ccc(NC(=O)COc4ccc(Cl)cc4)cc3s2)c1
AC50 [1]: 5.01 µM [falling, partial curve]

Cc1c(NC(=O)Cc2ccc(F)cc2)cccc1-c1nc2cccnc2s1
AC50 [1]: 15.8 µM [falling, partial curve]

Cc1cccc(NC(=O)c2cc3c(=O)n(Cc4ccco4)ccc3nc2C)c1
AC50 [1]: 39.8 µM [falling, single point]

CCOC(=O)CN(C(=O)CSc1nnc(CNc2ccc(F)cc2)o1)c1ccccc1
AC50 [1]: 15.8 µM [falling, partial curve]

Cc1ccc(NC(=O)/C=C/c2ccc(Cl)cc2)c(Br)c1
AC50 [1]: 3.16 µM [rising, partial curve]

COc1cc(C2CC(=O)c3c([nH]c(C(=O)OCc4ccc(C)cc4)c3C)C2)cc(OC)c1OC (stereo not drawn)
AC50 [1]: 3.98 µM [falling, full curve, poor fit]

COc1cc(NC(=O)c2cc(Cl)ccc2Cl)ccc1NC(=O)c1cc2ccccc2o1
AC50 [1]: 3.98 µM [falling, full curve]

COc1ccccc1-c1nnc(C2CCN(C(=O)c3cccc(Cl)c3)CC2)o1
AC50 [1]: 7.94 µM [falling, partial curve]

Cc1cccc(C(c2sc3nc(-c4ccco4)nn3c2O)N2CCN(Cc3ccccc3)CC2)c1 (stereo not drawn)
AC50 [1]: 1 µM [rising, full curve, poor fit]

CCOC(=O)c1ccccc1NC(=O)Cn1c(=O)n(CCC(=O)N2CCc3ccccc3C2)c(=O)c2ccccc21
AC50 [1]: 1.58 µM [falling, full curve]

COCCCNC(=O)c1[nH]c2ccccc2c1Sc1ccc(C)cc1
AC50 [1]: 31.6 µM [falling, single point]

CCS(=O)(=O)N1CCc2cc(C(=O)NCc3ccc(Cl)cc3)ccc21
AC50 [1]: 10 µM [falling, partial curve]

Cc1nc2ncnn2c(N2CCCC(C(=O)Nc3ccc4c(c3)CCC4)C2)c1C (stereo not drawn)
AC50 [1]: 25.1 µM [falling, partial curve]

CCCn1c(=N)n(CC(O)COc2cccc(C)c2)c2ccccc21 (stereo not drawn)
AC50 [1]: 15.8 µM [falling, partial curve]

CCN(CC)CCNc1ncnc2c1cnn2-c1cc(Cl)ccc1C
AC50 [1]: 31.6 µM [falling, partial curve, poor fit]

COc1ccc(-n2nnnc2-c2cccc(OC)c2)cc1
AC50 (measured here: IkB-luc green channel): 7.94 µM [rising, partial curve] | AC50 (measured here: control luc red channel): 3.16 µM [rising, single point]

Source: PubChem BioAssay AID445 (National Center for Advancing Translational Sciences (NCATS), 2006)
